# The other results are listed elsewhere or left out.
# Tested on: T1, CTL2-GFP (C. trachomatis L2/434/Bu, GFP-expressing)
# T1 construct: L2/434/Bu, GFP-expressing
# Parameters: species or system HeLa; Intracellular C. trachomatis growth in HeLa cells, bulk GFP fluorescence relative to DMSO
# Settings: bulk GFP, single well; 28.5 h, 10 µM; inhibitor
row,Compound,% of control remaining
1,CNc1nc(SCC(=O)Nc2ccc(Cl)c(Cl)c2)nc(N2CCOCC2)n1 [CBK269559],182.331%
2,Cc1sc2ccc(-c3ccccc3)cc2[n+]1CCCS(=O)(=O)[O-] [CBK260947],109.708%
3,COc1ccc(S(=O)(=O)N(C)CC(=O)O)cc1 [CBK287086],125.831%
4,Cn1ccnc1CN1CCCC(CCC(=O)Nc2ccccc2F)C1 (stereo not drawn) [CBK307462],193.902%
5,CCCC(=O)N1CCCCC1c1nn(C)cc1-c1cc(C)no1 (stereo not drawn) [CBK283407],90.0521%
6,COc1cc(NC(=O)N2CCC3(CC2)CC(=O)c2ccc(C)cc2O3)cc(OC)c1 [CBK166521],125.016%
7,Cc1cc(NC(=O)CSc2nc3c(c(C(F)(F)F)n2)CCc2ccccc2-3)n(-c2ccccc2)n1 [CBK266086],173.893%
8,C(=C\c1nccnc1OCCn1cccc1)/c1ccccc1 [CBK106884],111.134%
9,O=C1CCC(=O)N1CCOc1nccnc1N1CCN(CC2CCCCC2)CC1 [CBK084306],114.866%
10,O=C(Cn1c(C2CCOCC2)cc2cccnc21)NC1CCCC1 [CBK285157],118.197%
11,CC(=O)OC(Cn1c2ccccc2c2ccccc21)Cn1c2ccccc2c2ccccc21 [CBK262307],101.252%
12,COc1cccc2c1cc(C(=O)NCCCc1ccccn1)n2C [CBK283283],141.694%
13,COc1cccc2sc(N(Cc3cccnc3)C(=O)c3ccc(S(=O)(=O)N(C)C)cc3)nc12 [CBK294420],108.052%
14,CC(C)(C)/N=C1/SCC(C)(/C=N\O)S1 (stereo not drawn) [CBK009726],98.8293%
15,O=C(NCc1c(F)cccc1F)c1ccc2nc[nH]c2c1 [CBK153315],118.924%
16,COc1ccc(-c2cc3ncnc(Sc4nnnn4CC4CCCO4)c3s2)cc1 (stereo not drawn) [CBK297157],109.571%
17,O=C(O)c1cc(Cl)c2c(c1)[C@@H]1C=CC[C@@H]1[C@H](c1cccc(Br)c1)N2 [CBK077927],112.772%
18,Fc1cccc(-c2cncc(NCCc3c[nH]c4ccccc34)n2)c1 [CBK065288],124.853%
19,Cc1ccc(C2=CCN(CC(=O)Nc3ccc(N(C)C)cc3)CC2)o1 [CBK283604],136.94%
20,CC(C)c1ccc(Cc2cnc(NC(=O)c3cc(Br)cs3)s2)cc1 [CBK300503],159.328%
21,O=[N+]([O-])c1cccc(/C=C/C=N/c2ccc3c(c2)S(=O)(=O)c2cc(/N=C/C=C/c4cccc([N+](=O)[O-])c4)ccc2-3)c1 [CBK261244],100%
22,COCC(=O)N[C@H]1CC(C)(C)[C@@H]2C[C@@](C)(O)CC[C@]12CCC(=O)N1CCCC1 [CBK289043],132.117%
23,O=C(O)c1cccc(NS(=O)(=O)c2cccc(S(=O)(=O)c3ccc(Cl)c(Cl)c3)c2)c1 [CBK261259],100%
24,Cc1ccc2nc(/C(C#N)=C/c3ccc(-c4ccc(S(N)(=O)=O)cc4)o3)[nH]c2c1 [CBK266386],100%
25,CC(=O)c1ccc(-c2cc(C(=O)NCCc3cccnc3)cnc2-c2ccc(F)cc2)s1 [CBK036614],75.16%
26,O=C(O)CCn1c(-c2ccc(F)cc2)cc2cccnc21 [CBK282583],105.979%

row,Compound,% of control remaining
1,CCCOCC1CCN(C(=O)Nc2ccc(Oc3cccnc3)cc2)C1 (stereo not drawn) [CBK306799],86.328%
2,COc1ccc(C(C)C)cc1-c1nccnc1NC1CCC(N)CC1 (stereo not drawn) [CBK036703],78.5648%
3,CCc1ccc(C(=O)NCCCN2CCOCC2)cc1 [CBK268144],100.794%
4,O=C(NCCOc1ccccc1)N1CCCC(CO)C1 (stereo not drawn) [CBK156058],100%
5,CC1CCCCN1C(=O)CN1C(=O)N2CCN=C2c2ccccc21 (stereo not drawn) [CBK283921],108.905%
6,O=C(O)CCCNc1ncnc2c1oc1ccccc12 [CBK287573],144.052%
7,COC(=O)c1ccc(NS(=O)(=O)c2ccc(C)c(C(=O)O)c2)c(C)c1 [CBK296684],129.004%
8,O=C(/C=C/c1ccc(Cl)cc1Cl)Nc1sc2c(c1C(=O)NCc1cccnc1)CCCC2 [CBK265497],132.805%
9,Cn1ncc2c(NCc3cccc(Cn4cncn4)c3)ncnc21 [CBK304241],87.9659%
10,COc1ccc(COc2nccnc2N2CCCC2)cc1OC [CBK116613],155.862%
11,CC(C)CSc1nc(O)cc(=O)n1Cc1ccccc1 [CBK291170],93.3264%
12,Cc1ccccc1NC1=NC(=O)C(CC(C)C)O1 (stereo not drawn) [CBK074902],118.369%
13,Nc1cc(=O)[nH]c(SCC(=O)N2CCCc3ccccc32)n1 [CBK304576],103.225%
14,OCC1(CNc2ncc(F)c(N3CCCC3)n2)CCCC1 [CBK307397],57.1017%
15,COc1ccc(CN(Cc2ccc(NC(C)=O)cc2)[C@@H]2COC[C@H]2c2ccc(F)cc2)cc1 [CBK286488],63.2338%
16,CC(Oc1ccccc1)C(=O)Nc1cccc(-c2nnc(-c3ccccc3)o2)c1 (stereo not drawn) [CBK262822],128.781%
17,O=C1NC2=C(C(=O)N(CC3CCCO3)C2)C(c2ccccc2)N1 (stereo not drawn) [CBK283494],95.8593%
18,Cc1cccnc1Nc1ccc(C2CCCN(C(=O)Cc3ccc4c(c3)CCCO4)C2)nc1 (stereo not drawn) [CBK285969],123.132%
19,O=C(CCCc1nc2ccccc2c(=O)[nH]1)NC(Cc1ccc(O)cc1)C(=O)O (stereo not drawn) [CBK297130],100.267%
20,Cn1nc(NC(=O)CN2CCOC2=O)c2c(N3CCOCC3)cccc21 [CBK306830],126.234%
21,CNC(=O)CN1CCC[C@@H]2NC(=O)c3ccccc3OCCCCC[C@@H]21 [CBK292104],121.264%
22,COc1ccc(-c2cc(C(=O)NCCc3c[nH]cn3)cnc2-c2ccc(F)cc2)cn1 [CBK036675],84.614%
23,Cc1ccc(S(=O)(=O)N2CCN(C)CC2)cc1NC(=O)c1ccc(Br)o1 [CBK034260C],103.377%
24,O=C(NCCc1cccs1)Nc1cc(Cl)nc(Cl)c1 [CBK043762],78.275%
25,CC(Sc1ccc(S(=O)(=O)N2CCN(C)CC2)cn1)C(=O)Nc1ccc(C(C)(C)C)cc1 (stereo not drawn) [CBK297551],85.78%
26,COc1ccc(NC(=O)c2cnc(-c3cccc(C(F)(F)F)c3)c(-c3ccncc3)c2)cc1 [CBK037593],105.286%

# A portion from further up, as a working copy:
row,Compound,% of control remaining
21,CNC(=O)CN1CCC[C@@H]2NC(=O)c3ccccc3OCCCCC[C@@H]21 [CBK292104],121.264%
22,COc1ccc(-c2cc(C(=O)NCCc3c[nH]cn3)cnc2-c2ccc(F)cc2)cn1 [CBK036675],84.614%
23,Cc1ccc(S(=O)(=O)N2CCN(C)CC2)cc1NC(=O)c1ccc(Br)o1 [CBK034260C],103.377%
24,O=C(NCCc1cccs1)Nc1cc(Cl)nc(Cl)c1 [CBK043762],78.275%
25,CC(Sc1ccc(S(=O)(=O)N2CCN(C)CC2)cn1)C(=O)Nc1ccc(C(C)(C)C)cc1 (stereo not drawn) [CBK297551],85.78%
26,COc1ccc(NC(=O)c2cnc(-c3cccc(C(F)(F)F)c3)c(-c3ccncc3)c2)cc1 [CBK037593],105.286%

# Next records.

row,Compound,% of control remaining
1,O=C1NC2(CCCC2)C(=O)N1Cc1cnn(-c2ccccc2)n1 [CBK305568],94.6759%
2,COC(=O)c1ccccc1NC(=O)CSc1n[nH]c(-c2ccccc2Cl)n1 [CBK265966],95.6745%
3,Clc1ccc(CN2CCN(c3nccnc3OC3CCCCC3)CC2)cc1 [CBK082826T],75.8169%
4,CCOC(=O)N1N=C(c2ccc(F)cc2)CC1(O)C(F)(F)F (stereo not drawn) [CBK027156],115.258%
5,OCCN1CCN(c2ccc(-c3cc(C(F)(F)F)cc(C(F)(F)F)c3)cn2)CC1 [CBK036941],121.654%
6,O=C(/C=C(O)/C(O)=C/C(=O)c1ccc(Cl)cc1)c1ccc(Cl)cc1 [CBK261428],111.127%
7,O=C(O)CCC(=O)Nc1ccc(OC(F)F)cc1 [CBK264222],102.142%
8,O=[N+]([O-])c1ccc(S(=O)(=O)NCCc2nc3ccccc3[nH]2)cc1 [CBK261796],71.6066%
9,CN1C(=O)NC(c2ccc(Br)cc2)C2=C1CN(c1cccc(C(=O)O)c1)C2=O (stereo not drawn) [CBK286729],146.146%
10,COC(=O)c1cc(-c2ccccc2)sc1NC(=O)CSc1ncnc2sc3c(c12)CCC3 [CBK265978],165.52%
11,CCCCc1ccc(S(=O)(=O)n2ccc3c(N4CCNCC4)nccc32)cc1 [CBK045805C],110.156%
12,COc1cc(CNC(=O)N2CCCC(CO)C2)cc(OC)c1OC (stereo not drawn) [CBK156041],100.171%
13,Cc1csc(C(Cc2cccs2)NC(=O)CN(C)C)n1 (stereo not drawn) [CBK285124],110.96%
14,CN(C(=O)c1cc(O)nc2ccccc12)c1nccs1 [CBK297778],110.924%
15,O=P(O)(CCc1ccccc1)CN1CCCCC1 [CBK262318],125.775%
16,CCCCn1ncnc1-c1cnc2ccnn2c1C [CBK307305],107.517%
17,Cc1nc(-c2nnc(SCc3ccc(C(F)(F)F)cc3)o2)cs1 [CBK067715],94.1839%
18,CC(C)Nc1cc(OCc2ccc(F)cc2)ncn1 [CBK115654],122.735%
19,CCCc1cc(C(=O)OC)c(NC(=O)C2C3CCC(C3)C2C(=O)O)s1 (stereo not drawn) [CBK057885],120.23%
20,COc1cccc(C(=O)NCC(C)(C)SCc2ccc(F)cc2)c1 [CBK022322],74.6741%
21,CCn1c(=O)c(C=Cc2cc(OC)c(O)c(OC)c2)nc2cc(C(=O)O)ccc21 [CBK296701],131.842%
22,COc1ccc(OC)c(N2Cc3ccc(OC)c(OC)c3C2=O)c1 [CBK113161],131.131%
23,CNC(=O)c1cnc2sc3c(n2c1=O)CCCC3 [CBK288126],121.471%
24,CC(Oc1cccc2cccnc12)C(=O)N/N=C/c1ccc(-c2ccc(Br)cc2)o1 (stereo not drawn) [CBK262838],100%
25,Fc1ccc(-c2c[nH]c([C@@H]3COCCN3Cc3ncc[nH]3)n2)cc1 [CBK289263],134.078%
26,CCN(CC)C(=O)C1CCCN(C(=O)Nc2ccc(N(CC)CC)cc2)C1 (stereo not drawn) [CBK156139],95.0638%
